Test results reported in patent US4308218A, “Aryl phosphonites and thiophosphonites useful as antioxidants” (priority 1977, dated 1981).

Experiment: melt flow index determination of stabilised polypropylene (ASTM D-1238-70)
Settings: 0.2% of compound in base-stabilized polypropylene, mixed at 170° for 5 minutes

SMILES | Melt flow Index at 2.16 Kp/230°
Cc1ccc(OP(Oc2ccc(C)cc2C(C)(C)C)c2ccc(N(C)C)cc2)c(C(C)(C)C)c1 [Example 2] | 3.0
CN(C)c1ccc(P(Oc2ccc(C(C)(C)C)cc2C(C)(C)C)Oc2ccc(C(C)(C)C)cc2C(C)(C)C)cc1 [Example 1] | 3.1
